# Data from patent EP2420245A1, “Therapeutic use of agonists or antagonists of bradykinin receptor 1 or 2, for modulation collateral blood vessel growth” (MAX-DELBRÜCK-CENTRUM FÜR MOLEKULARE MEDIZIN, priority 2010, dated 2012).
# At least one peptide structure holds a part that was inferred or is arguable (an end, a ring closure or a residue).
# Tested on: 3-vessel occlusion (3-VO) cerebral arteriogenesis model in rat
# Assay: 3-vessel occlusion (3-VO) cerebral arteriogenesis model: collateral growth / diameter of the posterior cerebral artery (postmortem latex perfusion)
# Format: in vivo
# Conditions: rat 3-VO model, antagonist treatment, 3 weeks post 3-VO (Figure 5)
# Experimental: Pharmacological modulation of arteriogenesis was analysed using a 3 vessel occlusion (3-VO) model for cerebral arteriogenesis in the rat (Occlusion of both vertebral arteries and one carotid artery). Upon occlusion of three of four blood-supplying arteries to the brain, blood flow is redistributed by the recruitment of collateral pathways such as the posterior cerebral artery to supply the hypoperfusion area with blood. The 3-VO model in the rat has been established since 2003 and is acknowledged as a hypoperfusion model for testing cerebral arteriogenesis (Busch, Buschmann et al. 2003). By using the 3-VO model, relevant therapeutic stimulation of arteriogenesis was shown for instance by the application of GM-CSF (Buschmann, Circulation 2003).
# Either by inhibition or stimulation of the bradykinin receptor signalling pathways, arteriogenesis was determined and physiological parameters of the brain were tested.
# The characterisation of arteriogenesis was carried out via measurement of the artery or blood vessel diameter (posterior cerebral artery - PCA) in addition to via a measurement of the cerebrovascular reactivity (perfusion reserves in the brain). Cerebrovascular anatomy was studied after maximal vasodilation by a modification of the postmortem latex perfusion method of Maeda et al (Maeda, Hata et al. 1998) .
smiles,measurement,value
N=C(N)NCCC[C@@H](N)C(=O)N[C@@H](CCCNC(=N)N)C(=O)N1CCC[C@H]1C(=O)N1C[C@H](O)C[C@H]1C(=O)NCC(=O)N[C@@H](Cc1cccs1)C(=O)N[C@@H](CO)C(=O)N1Cc2ccccc2C[C@@H]1C(=O)N1[C@H](C(=O)N[C@@H](CCCNC(=N)N)C(=O)O)C[C@@H]2CCCC[C@@H]21 [Icatibant],arteriogenesis (collateral growth),inhibited
